No constants are given. Whether binding was seen depends on the method and setting. Binding can be weak; no strength is given.

This passage reports binding results from patent US20220380484A1 (MONASH UNIVERSITY, published 2022).

Assay [1] concerns the target plasminogenR561A,S741A (human). The experiment in a line: SPR competition: 10 nM plasminogen with G05 at 0, 62.5, 125, 250 and 500 nM over immobilised streptokinase (competitor).
Assay [2] addresses plasminogenR561A,S741A (human). Description: SPR competition; 10 nM plasminogen R561A,S741A with G05 at 0 to 500 nM passed over immobilised streptokinase (the blocked partner) [6B].

B1: G05 antibody (scFv, V domains shown)
VH: AVTLDESGGGLQTPGRALSLVCKASGFTFSSYAMHWVRQAPGKGLEFVAGIDNIGSYTRYGAAVKGRVTISRDNGQSIVRLQLDNLRAEDTGTYYCAKSAYGGSCCGPAYIDAWGHGTEVIVSS
VL: QAALTQPSSVSANPGETVEITCSGGGRSSYYGWYQQKSPGSAPVTLIYDNTNRPSNIPSRFSGSKSGSTATLTITGVQGEDEAVYFCGSADSSTTGIFGAGTTLTVL
notes: Chicken antibody from an scFv library (VH and VL joined by a flexible linker); also called scFv fragment of G05
For B1, the binding result in assay [1] and in assay [2] was “binds” each time.
